The text below walks through data of patent US20040248762A1, “Malodor counteractant compositions” (priority 2003, published 2004).

Data set [1] in a line: Perfumer scaling of ease of incorporation into a fragrance composition. Also noted: species or system human; key: 5—Difficult; 3—Acceptable; 1—Very easy. The conditions noted are these: compound at 10% (wt.) in fragrance without significant distortion of the fragrance note; perfumer scale 1-5.
The nature of data set [2]: Odor Value (headspace quantity divided by perception threshold). Set-up: species or system human. Conditions: standards of Table 7.

Regarding `CC(C)=CCCC(C)CCOC(=O)/C(C#N)=C/c1ccccc1O` (centres unmarked) [GR-85-2661/000], in data set [1], the “SCORE (ease of incorporation into a fragrance composition)” value (“SCORE” for short) is reported as 3.

As to `COc1ccc(OC)c(/C=C/C(=O)OCCC(C)CCC=C(C)C)c1` (centres unmarked) [GR-85-3260/000], in data set [1], the “SCORE” value was determined as 1.

On to `O=C/C=C/c1ccccc1` [Cinnamic Aldehyde, reference compound], for which the “SCORE” value in data set [1] was 5. Further, the “Odor Value” in data set [2] is 12000).

With `C/C(=C\c1ccccc1O)C(=O)OCCC(C)CCc1ccccc1` (centres unmarked) [GR-85-1407/000], the “SCORE” value in data set [1] came out at 3.

With `CCCCCCC(C=O)=Cc1ccccc1` [Hexyl Cinnamic Aldehyde, reference compound], the “SCORE” value in data set [1] is 2. Besides, the “Odor Value” in data set [2] is 384.

For `CCCCC(CC)COC(=O)/C=C/c1ccccc1` (centres unmarked) [GR-85-3429/000], the “SCORE” value in data set [1] was determined as 2.

Regarding `CCCCCCOC(=O)c1ccccc1` [Hexyl Benzoate, reference compound], in data set [1], the “SCORE” value stood at 3. The “Odor Value” in data set [2] came to 1000.

On to `COC(=O)/C(C#N)=C/c1ccccc1` [GR-85-3427/000], for which the “SCORE” value in data set [1] turned out to be 2.

With `CCCCC(CC)COC(=O)/C=C/c1ccc(OC)cc1` (centres unmarked) [OMC, Octyl methoxy cinnamate], the “SCORE” value in data set [1] is 1.

Turning to `CC(C)=CCCC(C)CCOC(=O)/C=C/c1ccccc1O` (centres unmarked) [GR-85-2280/001], the “SCORE” value in data set [1] worked out at 4.

Take `CCCCC(C)COC(=O)c1cc2ccccc2oc1=O` (centres unmarked) [GR-84-6924/000]: in data set [1], the “SCORE” value amounted to 1.

Regarding `CCCCCCCCCCOC(=O)/C=C/c1ccccc1` [GR-85-3428/000], the “SCORE” value in data set [1] amounted to 2.

As to `CCCCC(C)COC(=O)C1=Cc2ccc(OC)cc2CC1` (centres unmarked) [GR-84-6495/000], in data set [1], the “SCORE” value amounted to 1.

As for `CC(C)=CCCC(C)CCOC(=O)/C=C/c1ccccc1O[Si](C)(C)C` (centres unmarked) [GR-85-3565/000], the “SCORE” value in data set [1] came to 2.
